Measurements reported in article PMC12752606, “METTL10‐Mediated PIAS3 Methylation Links Purine Metabolism to Gastric Cancer Progression” (Advanced Science, 2025).
No constants are given. Whether binding was seen depends on the method and setting. Binding seen in cells or lysates may run through a third protein. Some results given as binding are weak or reduced against the parent protein; the word gives no strength. For part of these data: Where a sequence is shown, tags or fusion partners need not be part of it.

By UniProt entry, the sequences of proteins in these tests, tags left out. Where a name states a change or a piece, a line headed by the entry shows the natural chain unless it says otherwise. Chains listed by the source or under a name are the forms on record and can include a tag or linker. Residues count along the entry.
Flag-tagged METTL10 N-terminal fragment (ΔC: aa 1-197) (Q5JPI9, residues 1-197): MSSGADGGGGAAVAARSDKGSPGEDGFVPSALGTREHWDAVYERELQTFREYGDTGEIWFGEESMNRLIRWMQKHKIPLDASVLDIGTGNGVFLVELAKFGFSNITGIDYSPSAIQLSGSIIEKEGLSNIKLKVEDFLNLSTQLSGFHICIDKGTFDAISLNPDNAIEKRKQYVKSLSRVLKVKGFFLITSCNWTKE
Flag-METTL10 (methyltransferase-like 10) (Q5JPI9, form named): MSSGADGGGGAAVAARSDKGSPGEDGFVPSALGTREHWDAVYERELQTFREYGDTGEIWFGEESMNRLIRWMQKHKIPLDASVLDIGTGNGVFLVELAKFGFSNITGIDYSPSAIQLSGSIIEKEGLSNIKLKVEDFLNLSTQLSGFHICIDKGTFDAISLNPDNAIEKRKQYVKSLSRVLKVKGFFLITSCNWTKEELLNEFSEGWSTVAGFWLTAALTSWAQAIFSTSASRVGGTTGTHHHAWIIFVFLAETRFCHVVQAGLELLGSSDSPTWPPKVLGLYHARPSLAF

Key:
[1] = molecular target: METTL10, endogenous (human (endogenous in MKN45 and AGS)) (UniProt Q5JPI9); assay: co-IP; endogenous proteins in MKN45 and AGS lysates; antibody on Dynabeads Protein G, 4 °C overnight; lysis buffer 20 mM Tris-HCl pH 7.5, 150 mM NaCl, 1% Triton X-100
[2] = molecular target: Flag-METTL10 (methyltransferase-like 10) (UniProt Q5JPI9); assay: co-IP; HEK293T transfected with HA-PIAS3 and Flag-METTL10; immunoprecipitation and immunoblotting
[3] = molecular target: Flag-tagged METTL10 N-terminal fragment (ΔC: aa 1-197) (UniProt Q5JPI9); assay: co-IP; domain mapping with Flag-tagged METTL10 fragments and PIAS3 domain constructs (Figure S3b,c); cells and antibodies not shown

B1: PIAS3, endogenous (enzyme, UniProt Q9Y6X2 1-628)
chain: MAELGELKHMVMSFRVSELQVLLGFAGRNKSGRKHELLAKALHLLKSSCAPSVQMKIKELYRRRFPRKTLGPSDLSLLSLPPGTSPVGSPGPLAPIPPTLLAPGTLLGPKREVDMHPPLPQPVHPDVTMKPLPFYEVYGELIRPTTLASTSSQRFEEAHFTFALTPQQVQQILTSREVLPGAKCDYTIQVQLRFCLCETSCPQEDYFPPNLFVKVNGKLCPLPGYLPPTKNGAEPKRPSRPINITPLARLSATVPNTIVVNWSSEFGRNYSLSVYLVRQLTAGTLLQKLRAKGIRNPDHSRALIKEKLTADPDSEVATTSLRVSLMCPLGKMRLTVPCRALTCAHLQSFDAALYLQMNEKKPTWTCPVCDKKAPYESLIIDGLFMEILSSCSDCDEIQFMEDGSWCPMKPKKEASEVCPPPGYGLDGLQYSPVQGGDPSENKKKVEVIDLTIESSSDEEDLPPTKKHCSVTSAAIPALPGSKGVLTSGHQPSSVLRSPAMGTLGGDFLSSLPLHEYPPAFPLGADIQGLDLFSFLQTESQHYGPSVITSLDEQDALGHFFQYRGTPSHFLGPLAPTLGSSHCSATPAPPPGRVSSIVAPGGALREGHGGPLPSGPSLTGCRSDIISLD
- binding [1]: binds

B2: HA-PIAS3 (protein inhibitor of activated STAT3) (enzyme, UniProt Q9Y6X2 1-628)
chain: MAELGELKHMVMSFRVSELQVLLGFAGRNKSGRKHELLAKALHLLKSSCAPSVQMKIKELYRRRFPRKTLGPSDLSLLSLPPGTSPVGSPGPLAPIPPTLLAPGTLLGPKREVDMHPPLPQPVHPDVTMKPLPFYEVYGELIRPTTLASTSSQRFEEAHFTFALTPQQVQQILTSREVLPGAKCDYTIQVQLRFCLCETSCPQEDYFPPNLFVKVNGKLCPLPGYLPPTKNGAEPKRPSRPINITPLARLSATVPNTIVVNWSSEFGRNYSLSVYLVRQLTAGTLLQKLRAKGIRNPDHSRALIKEKLTADPDSEVATTSLRVSLMCPLGKMRLTVPCRALTCAHLQSFDAALYLQMNEKKPTWTCPVCDKKAPYESLIIDGLFMEILSSCSDCDEIQFMEDGSWCPMKPKKEASEVCPPPGYGLDGLQYSPVQGGDPSENKKKVEVIDLTIESSSDEEDLPPTKKHCSVTSAAIPALPGSKGVLTSGHQPSSVLRSPAMGTLGGDFLSSLPLHEYPPAFPLGADIQGLDLFSFLQTESQHYGPSVITSLDEQDALGHFFQYRGTPSHFLGPLAPTLGSSHCSATPAPPPGRVSSIVAPGGALREGHGGPLPSGPSLTGCRSDIISLD
- binding [2]: binds
- binding [3]: binds
